# Experimental data: patent US20050191710A1, “Method for labeling a membrane-localized protein” (priority 2004, published 2005)
# Sequences of proteins named here, by UniProt entry; tags and fusion partners are left off. A change or cut given only in a name is not applied to a line headed by its entry. A line that says so, or that is headed by a name, gives the form on record, which may keep a tag or linker.
# CFTR-biotintag, enzymatically biotinylated by BirA at the cell surface (P13569, form named): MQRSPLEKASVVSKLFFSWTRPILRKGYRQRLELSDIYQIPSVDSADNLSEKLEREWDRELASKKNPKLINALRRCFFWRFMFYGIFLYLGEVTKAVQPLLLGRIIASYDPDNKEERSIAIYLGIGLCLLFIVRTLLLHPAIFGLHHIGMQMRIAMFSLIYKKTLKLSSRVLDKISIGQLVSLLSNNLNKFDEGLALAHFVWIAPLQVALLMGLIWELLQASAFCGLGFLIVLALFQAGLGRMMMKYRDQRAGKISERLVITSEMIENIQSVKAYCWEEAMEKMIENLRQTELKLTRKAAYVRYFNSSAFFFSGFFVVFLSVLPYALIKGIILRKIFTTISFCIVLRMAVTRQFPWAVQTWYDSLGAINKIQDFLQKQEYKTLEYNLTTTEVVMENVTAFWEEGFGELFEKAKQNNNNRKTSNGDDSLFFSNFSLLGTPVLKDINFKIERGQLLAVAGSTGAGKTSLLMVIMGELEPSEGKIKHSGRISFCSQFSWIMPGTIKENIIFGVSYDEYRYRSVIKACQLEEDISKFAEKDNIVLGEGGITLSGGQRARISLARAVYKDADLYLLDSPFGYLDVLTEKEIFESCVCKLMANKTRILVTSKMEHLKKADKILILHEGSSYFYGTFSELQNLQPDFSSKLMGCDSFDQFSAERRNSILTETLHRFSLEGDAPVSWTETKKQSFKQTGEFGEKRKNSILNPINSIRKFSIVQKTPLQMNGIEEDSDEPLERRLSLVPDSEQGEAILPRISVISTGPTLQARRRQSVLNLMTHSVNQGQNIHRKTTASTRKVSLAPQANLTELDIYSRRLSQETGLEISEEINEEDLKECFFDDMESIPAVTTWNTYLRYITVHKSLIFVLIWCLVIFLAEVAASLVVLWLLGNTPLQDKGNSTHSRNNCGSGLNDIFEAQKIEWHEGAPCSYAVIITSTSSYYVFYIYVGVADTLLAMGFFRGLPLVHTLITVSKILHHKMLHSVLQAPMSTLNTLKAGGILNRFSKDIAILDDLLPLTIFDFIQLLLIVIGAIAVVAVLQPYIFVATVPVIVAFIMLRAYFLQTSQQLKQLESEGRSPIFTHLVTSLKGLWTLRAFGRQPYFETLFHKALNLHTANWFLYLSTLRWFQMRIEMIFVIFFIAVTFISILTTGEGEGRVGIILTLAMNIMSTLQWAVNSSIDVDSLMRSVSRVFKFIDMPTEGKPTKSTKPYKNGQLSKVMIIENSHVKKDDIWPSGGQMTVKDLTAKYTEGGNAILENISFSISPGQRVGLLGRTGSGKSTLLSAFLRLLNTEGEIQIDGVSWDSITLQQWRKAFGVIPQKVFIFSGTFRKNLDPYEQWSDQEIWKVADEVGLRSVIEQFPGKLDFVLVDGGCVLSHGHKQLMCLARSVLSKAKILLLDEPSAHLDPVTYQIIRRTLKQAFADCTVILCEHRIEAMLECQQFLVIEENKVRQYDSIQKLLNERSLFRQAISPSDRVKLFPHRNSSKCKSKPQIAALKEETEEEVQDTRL
# CFTR-biotintag-10his, enzymatically biotinylated by BirA (P13569, form named): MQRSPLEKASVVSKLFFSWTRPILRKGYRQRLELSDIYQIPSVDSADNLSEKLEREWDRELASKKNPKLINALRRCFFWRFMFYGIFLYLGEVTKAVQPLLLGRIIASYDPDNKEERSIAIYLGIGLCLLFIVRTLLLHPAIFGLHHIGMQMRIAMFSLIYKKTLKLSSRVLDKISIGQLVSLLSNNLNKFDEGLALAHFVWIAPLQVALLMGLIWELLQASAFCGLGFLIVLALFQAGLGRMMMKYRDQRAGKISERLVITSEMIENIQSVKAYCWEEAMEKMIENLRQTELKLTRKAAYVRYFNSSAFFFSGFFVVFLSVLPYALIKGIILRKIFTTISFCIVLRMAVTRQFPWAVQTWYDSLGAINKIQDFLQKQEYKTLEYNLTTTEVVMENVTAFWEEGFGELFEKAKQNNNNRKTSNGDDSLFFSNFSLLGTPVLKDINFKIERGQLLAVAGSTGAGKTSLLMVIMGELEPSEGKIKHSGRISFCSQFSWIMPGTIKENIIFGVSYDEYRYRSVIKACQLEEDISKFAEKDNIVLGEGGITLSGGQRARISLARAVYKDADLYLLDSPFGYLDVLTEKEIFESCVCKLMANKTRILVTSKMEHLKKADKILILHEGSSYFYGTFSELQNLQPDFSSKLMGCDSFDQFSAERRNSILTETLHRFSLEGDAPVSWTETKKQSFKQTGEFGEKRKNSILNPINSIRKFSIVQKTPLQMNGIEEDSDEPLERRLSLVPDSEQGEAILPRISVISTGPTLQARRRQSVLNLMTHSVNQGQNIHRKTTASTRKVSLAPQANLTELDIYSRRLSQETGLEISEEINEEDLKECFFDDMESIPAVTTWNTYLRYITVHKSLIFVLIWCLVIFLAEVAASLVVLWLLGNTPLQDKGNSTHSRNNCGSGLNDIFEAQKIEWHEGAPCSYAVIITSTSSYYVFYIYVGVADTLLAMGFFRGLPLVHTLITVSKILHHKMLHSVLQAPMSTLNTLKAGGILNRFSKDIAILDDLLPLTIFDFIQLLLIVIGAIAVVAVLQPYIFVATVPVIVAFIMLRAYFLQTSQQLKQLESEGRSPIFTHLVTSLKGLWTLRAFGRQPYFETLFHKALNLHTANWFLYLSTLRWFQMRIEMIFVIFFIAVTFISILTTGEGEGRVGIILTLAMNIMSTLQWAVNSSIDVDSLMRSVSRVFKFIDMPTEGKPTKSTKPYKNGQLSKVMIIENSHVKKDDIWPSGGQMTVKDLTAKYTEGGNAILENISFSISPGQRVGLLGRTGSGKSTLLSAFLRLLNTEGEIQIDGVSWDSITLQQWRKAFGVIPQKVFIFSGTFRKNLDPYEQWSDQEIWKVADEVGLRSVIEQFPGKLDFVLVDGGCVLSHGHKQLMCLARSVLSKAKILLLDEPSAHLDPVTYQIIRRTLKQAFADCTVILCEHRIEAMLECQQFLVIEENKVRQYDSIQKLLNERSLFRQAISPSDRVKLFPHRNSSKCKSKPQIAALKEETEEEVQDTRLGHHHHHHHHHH
# These are yes or no findings as the source states them, for the method shown. Some binding calls cover weakened binding; strength is not graded here.
# What was measured:
# [1] = biological target: CFTR-biotintag, enzymatically biotinylated by BirA at the cell surface (UniProt P13569); assay: confocal imaging of live BHK cells after BirA and streptavidin-Alexa568
# [2] = biological target: CFTR-biotintag-10his, enzymatically biotinylated by BirA (UniProt P13569); assay: capture on streptavidin beads, western blot
# [3] = biological target: CFTR-biotintag, enzymatically biotinylated by BirA at the cell surface (UniProt P13569); assay: capture of biotinylated CFTR on streptavidin beads, western blot
Substance,binding [1],binding [2],binding [3]
fluorescent streptavidin (from UniProt P22629 37-163),binds,,
streptavidin beads (from UniProt P22629 37-163),,binds,binds
